PubChem BioAssay AID652259 | Drosophila RNAi Screening Center, 2013
Purpose: 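Knock-downs that push a Wingless-driven reporter up or down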 (primary screen). Cells: Drosophila clone 8 imaginal disc epithelial cells. Reagent: long dsRNA against Drosophila genes. Challenge: pathway stimulated by co-transfected Wingless expression plasmid. Measured: 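Firefly luciferase from a tcf-site Wingless reporter, measured alongside co-transfected Renilla luciferase that tracks transfection; pathway stimulated by a Wingless plasmid; the firefly-to-Renilla ratio is not deposited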. Scale: firefly reporter light: higher = more Wg reporter light, before normalisation; Renilla control light: higher = more transfected or surviving cells. Rule for the call: 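a knock-down is a candidate when at least two out of four statistical tests show it departing from its plate mean; one test alone signals a weak candidate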. Meaning of the calls: active = candidate regulator (raises or lowers reporter); inactive = not a candidate.
In all, the deposit lists about 22,000 reagents; below is an unselected part of those with a known target gene and a result. In the full data, 233 (1.1%) were called active. 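Light values are raw, unnormalised plate reads; the ratio scores behind the reporter calls were not deposited.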 Unmarked entries are inactive. A plus sign joins genes that one reagent is predicted to hit. Not given: the amount of reagent, the time to read-out, the dose of the treatment.

Against CG7988 (GeneID 42180) [DRSC16358], the entry reads firefly reporter light, replicate 1 = 13497; Renilla control light, replicate 1 = 2544.
With knock-down of Blimp-1 (GeneID 38638) [DRSC10496], the screen gave firefly reporter light, replicate 1 = 2234; firefly reporter light, replicate 2 = 10288; Renilla control light, replicate 1 = 2184; Renilla control light, replicate 2 = 6059.
For pont (GeneID 53439) [DRSC17029], the entry reads firefly reporter light, replicate 1 = 14592; Renilla control light, replicate 1 = 3425.
With knock-down of koi (GeneID 35594) [DRSC04980] the results were firefly reporter light, replicate 1 = 1632; firefly reporter light, replicate 2 = 3994; Renilla control light, replicate 1 = 167; Renilla control light, replicate 2 = 2429.
Against koi (GeneID 35594) [DRSC04991] the deposit lists firefly reporter light, replicate 1 = 2380; firefly reporter light, replicate 2 = 5717; Renilla control light, replicate 1 = 173; Renilla control light, replicate 2 = 2854.
natalisin (GeneID 5740700) [DRSC14966] showed firefly reporter light, replicate 1 = 8987; Renilla control light, replicate 1 = 1579.
Against natalisin (GeneID 5740700) [DRSC14967], the values are firefly reporter light, replicate 1 = 20784; Renilla control light, replicate 1 = 4740.
Depletion of CG43174 (retired record) + CG43173 (retired record) [DRSC09517] resulted in: firefly reporter light, replicate 1 = 2073; Renilla control light, replicate 1 = 1240.
After knock-down of djl (GeneID 40839) [DRSC12578], the record shows firefly reporter light, replicate 1 = 10813; Renilla control light, replicate 1 = 2056.
CG13029 (GeneID 39886) [DRSC09909] showed firefly reporter light, replicate 1 = 10896; Renilla control light, replicate 1 = 4474.
After knock-down of NPFR (GeneID 40754) [DRSC12173], the screen gave firefly reporter light, replicate 1 = 11147; Renilla control light, replicate 1 = 3312.
Depletion of CG42822 (GeneID 10178916) [DRSC13232] gave: firefly reporter light, replicate 1 = 3576; Renilla control light, replicate 1 = 1548.
dock (GeneID 33262) [DRSC00812] showed firefly reporter light, replicate 1 = 10420; Renilla control light, replicate 1 = 3691.
Against Nost (GeneID 8673992) [DRSC18037], the entry reads firefly reporter light, replicate 1 = 20213; Renilla control light, replicate 1 = 8845.
For Nost (GeneID 8673992) [DRSC18338] the deposit lists firefly reporter light, replicate 1 = 21888; Renilla control light, replicate 1 = 10240.
hdly (GeneID 42478) [DRSC15849] gave firefly reporter light, replicate 1 = 15415; Renilla control light, replicate 1 = 3490.
CG8372 (GeneID 34121) [DRSC03086] gave firefly reporter light, replicate 1 = 9893; Renilla control light, replicate 1 = 4791.
After knock-down of CG10116 (GeneID 39515) [DRSC09700], the screen gave firefly reporter light, replicate 1 = 4578; Renilla control light, replicate 1 = 1228.
Cat (GeneID 40048) [DRSC11110] scored firefly reporter light, replicate 1 = 4800; Renilla control light, replicate 1 = 2035.
After knock-down of TbCMF46 (GeneID 34318) [DRSC02221] the results were firefly reporter light, replicate 1 = 2269; firefly reporter light, replicate 2 = 7531; Renilla control light, replicate 1 = 809; Renilla control light, replicate 2 = 2298.
Against Rab23 (GeneID 40701) [DRSC12305], the values are firefly reporter light, replicate 1 = 12337; Renilla control light, replicate 1 = 3136.
Knock-down of CG9270 (GeneID 35366) [DRSC03182] gave: firefly reporter light, replicate 1 = 10860; Renilla control light, replicate 1 = 3225.
Chro (GeneID 40508) [DRSC11630] showed firefly reporter light, replicate 1 = 6412; Renilla control light, replicate 1 = 1610.
With knock-down of CG14054 (GeneID 31172) [DRSC17909], the record shows firefly reporter light, replicate 1 = 10848; Renilla control light, replicate 1 = 8387.
Psa (GeneID 38175) [DRSC08152] showed firefly reporter light, replicate 1 = 13829; Renilla control light, replicate 1 = 4906.
